2 molecules from PMC12660843 can be followed below.

Where a chain is given by its changes, count along the chain named. Numbers in names are those of the source. No constants are given. Whether binding was seen depends on the method and setting.

Test [1] addresses keyhole limpet hemocyanin (keyhole limpet). Description: ELISA; polyreactivity ELISA: KLH 5 ug/mL, insulin 1 ug/mL, BSA 1% (w/v), streptavidin 10 ug/mL added to wells; IgG at 100 nM; both purified. (In an ELISA, binding on a coated surface is turned into a signal by an enzyme label.)
In another test the target is insulin. The test is described as above.

B1: hSC44.20.N32Y^L IgG (antibody, V domains shown)
VH: EVQLVESGGGLVQPGGSLRLSCTASGFSIDSYGFSWVRQAPGKGLEHIGYLTAGGRAFYASWAKSRSTITRNTNENTVTLKMNSLRAEDTAVYYCAKLGTGSRFAIWGQGTLVTVSS
VL: DIQLTQSPSSLSASVGDRVTITCRASQSVWRNKYVAWYQQKPGKAPKRLIYAIASLYSGVPSRFSGSGSGTDFTLTISSLQPEDFATYYCVGHYGSENDAYYAFGQGTKVEIK
As to B1, the binding result (in test [1]; with insulin) was “no binding (tested: IgG at 100 nM)” each time.

B2: hSC44.20.N32F^L IgG (antibody, V domains shown)
VH: B1 VH
VL: B1 VL with Y34F
Consider B2, for which the binding result (in test [1]; in the test with insulin) was “no binding (tested: IgG at 100 nM)” throughout.
